Test results reported in the supplement of paper PMC4604168 (melanoma cell lines).
Some of the results follow. Many values rest on one well or one pass, so single values are uncertain.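 The apoptosis fraction was the count of cleaved-PARP antibody-stained nuclei relative to all DNA-stained nuclei, imaged in 1,536-well plates. Screening doses were set so most cells survived, and baseline and induced cleaved-PARP levels vary greatly across cell lines.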

Each compound was assayed on IST-MEL1 (assay: cleaved PARP positive nuclei fraction relative to DMSO control; melanoma cells; higher = more apoptosis). Conditions: library dose: low library concentration; 72 h.

Point of comparison: CCCCCCCCc1ccc(CCC(N)(CO)CO)cc1 [fingolimod] + CC(=O)O[C@@]12CO[C@@H]1C[C@H](O)[C@@]1(C)C(=O)[C@H](O)C3=C(C)[C@@H](OC(=O)[C@H](O)[C@@H](NC(=O)OC(C)(C)C)c4ccccc4)C[C@@](O)([C@@H](OC(=O)c4ccccc4)[C@H]21)C3(C)C [Docetaxel] (first compound 2 µM, partner dose 0.0001 µM), “cleaved PARP positive nuclei fraction” value 156%. Against it:
- Cn1sc(=O)n(Cc2ccccc2)c1=O + CNC(=O)c1cc(Oc2ccc(NC(=O)Nc3ccc(Cl)c(C(F)(F)F)c3)cc2)ccn1 [sorafenib] (first compound 0.4 µM, partner dose 0.4 µM) — lower, 124%
- CN(c1ncccc1CNc1nc(Nc2ccc3c(c2)CC(=O)N3)ncc1C(F)(F)F)S(C)(=O)=O + CS(=O)(=O)CCNCc1ccc(-c2ccc3ncnc(Nc4ccc(OCc5cccc(F)c5)c(Cl)c4)c3c2)o1 [lapatinib] (first compound 0.08 µM, partner dose 0.8 µM) — lower, 129%
- CCCCCCCCc1ccc(CCC(N)(CO)CO)cc1 [fingolimod] + COCC[n+]1c2c(n(Cc3cnccn3)c1C)C(=O)c1ccccc1C2=O [YM155] (first compound 2 µM, partner dose 0.0004 µM) — lower, 135%
- NC1(c2ccc(-c3nc4ccn5c(=O)[nH]nc5c4cc3-c3ccccc3)cc2)CCC1 + C[C@@H](Oc1cc(-c2cnn(C3CCNCC3)c2)cnc1N)c1c(Cl)ccc(F)c1Cl [Crizotinib] (first compound 0.4 µM, partner dose 0.2 µM) — lower, 64.9%
- C[C@]1(O)C[C@@H](c2nc(-c3ccc4ccc(-c5ccccc5)nc4c3)c3c(N)nccn32)C1 + Cc1cc(Nc2cc(N3CCN(C)CC3)nc(/C=C/c3ccccc3)n2)n[nH]1 [ENMD2076] (first compound 0.4 µM, partner dose 0.04 µM) — lower, 56.5%
- Cn1sc(=O)n(Cc2ccccc2)c1=O + C[C@@H](Oc1cc(-c2cnn(C3CCNCC3)c2)cnc1N)c1c(Cl)ccc(F)c1Cl [Crizotinib] (first compound 0.4 µM, partner dose 0.2 µM) — higher, 160%
- NC(=O)c1ccc(N(C(N)=O)c2c(F)cccc2F)nc1-c1ccc(F)cc1F + CCCCCCCCc1ccc(CCC(N)(CO)CO)cc1 [fingolimod] (first compound 0.4 µM, partner dose 2 µM) — lower, 68.6%
- NC1(c2ccc(-c3nc4ccn5c(=O)[nH]nc5c4cc3-c3ccccc3)cc2)CCC1 + CO[C@H]1C[C@@H]2CC[C@@H](C)[C@@](O)(O2)C(=O)C(=O)N2CCCC[C@H]2C(=O)O[C@H]([C@H](C)C[C@@H]2CC[C@@H](OCCO)[C@H](OC)C2)CC(=O)[C@H](C)/C=C(\C)[C@@H](O)[C@@H](OC)C(=O)[C@H](C)C[C@H](C)/C=C/C=C/C=C/1C [everolimus] (first compound 0.4 µM, partner dose 0.02 µM) — lower, 40.2%
